# Measurements as given in US20250163117A1 (CURE GENETICS, published 2025).
# These are yes or no findings as the source states them, for the method shown. Some results given as binding are weak or reduced against the parent protein; the word gives no strength.
# T1: Human IL-2Rβ&IL-2Rα&IL-2Rγ protein (human, UniProt P14784 27-239; P01589 22-217; P31785 23-262, limits assumed)
# T1 construct: Trimeric receptor protein used as SPR ligand; also called IL-2Rαβγ; Human IL-2RB&IL-2RA&IL-2RG
# T1 sequence (looked up) 1: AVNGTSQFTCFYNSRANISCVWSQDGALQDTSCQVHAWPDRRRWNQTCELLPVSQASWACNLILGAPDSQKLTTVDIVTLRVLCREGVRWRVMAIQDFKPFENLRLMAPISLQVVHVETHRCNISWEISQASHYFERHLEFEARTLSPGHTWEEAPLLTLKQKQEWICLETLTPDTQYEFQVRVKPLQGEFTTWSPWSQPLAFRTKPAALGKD
# T1 sequence (looked up) 2: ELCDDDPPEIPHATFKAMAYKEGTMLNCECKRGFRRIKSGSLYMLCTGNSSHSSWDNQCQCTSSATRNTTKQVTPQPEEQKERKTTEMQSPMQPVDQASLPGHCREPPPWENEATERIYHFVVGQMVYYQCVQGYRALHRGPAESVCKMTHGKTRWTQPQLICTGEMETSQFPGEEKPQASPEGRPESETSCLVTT
# T1 sequence (looked up) 3: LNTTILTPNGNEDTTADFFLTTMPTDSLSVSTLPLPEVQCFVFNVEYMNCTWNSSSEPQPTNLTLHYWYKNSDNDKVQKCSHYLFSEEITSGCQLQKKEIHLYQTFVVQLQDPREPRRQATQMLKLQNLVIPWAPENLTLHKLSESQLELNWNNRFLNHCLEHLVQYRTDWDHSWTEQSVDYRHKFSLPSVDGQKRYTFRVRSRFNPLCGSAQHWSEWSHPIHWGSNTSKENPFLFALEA
# Columns and labels:
# [1] = biological target: T1, Human IL-2Rβ&IL-2Rα&IL-2Rγ protein; assay: SPR (Biacore)
# [2] = biological target: T1, Human IL-2Rβ&IL-2Rα&IL-2Rγ protein; assay: SPR (Biacore, receptor on CM5 chip, IL-2 as analyte)
binder,measurement,setting,value
"CP-trIL-2 012 (ligand, H1-H3-H2-H4; loops 1 and 2 removed; de-Ala1, C58S, C125S, P65D) PTSSSTKKTQLQLEHLLLDLQMILNGINNYKNPLRPRDLISNINVIVLELKGSETTELKHLQSLEEELKDLEEVLNLAQSKNFHTIVEFLNRWITFSQSIISTLT",binding,[1],binds
same,binding,[2],binds
